Results: the supplement of paper PMC10849652
The list shows a part of the results.

Amino acid sequences for entries named in this document (tags omitted). A change or cut given only in a name is not applied to a line headed by its entry.
UniProt Q9NRG1: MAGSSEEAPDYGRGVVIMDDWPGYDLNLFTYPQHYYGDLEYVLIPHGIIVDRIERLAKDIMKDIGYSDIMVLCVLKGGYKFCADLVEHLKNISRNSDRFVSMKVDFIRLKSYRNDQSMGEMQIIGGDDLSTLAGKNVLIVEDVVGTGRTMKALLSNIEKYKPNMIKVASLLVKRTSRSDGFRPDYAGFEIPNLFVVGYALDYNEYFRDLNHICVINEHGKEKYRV
UniProt O14818: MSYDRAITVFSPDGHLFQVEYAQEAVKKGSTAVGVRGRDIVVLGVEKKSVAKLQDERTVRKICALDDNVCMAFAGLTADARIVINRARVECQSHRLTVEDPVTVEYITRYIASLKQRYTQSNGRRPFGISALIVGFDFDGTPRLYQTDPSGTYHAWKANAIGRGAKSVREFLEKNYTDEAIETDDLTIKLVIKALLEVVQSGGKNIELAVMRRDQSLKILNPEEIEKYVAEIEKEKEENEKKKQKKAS
UniProt O95456: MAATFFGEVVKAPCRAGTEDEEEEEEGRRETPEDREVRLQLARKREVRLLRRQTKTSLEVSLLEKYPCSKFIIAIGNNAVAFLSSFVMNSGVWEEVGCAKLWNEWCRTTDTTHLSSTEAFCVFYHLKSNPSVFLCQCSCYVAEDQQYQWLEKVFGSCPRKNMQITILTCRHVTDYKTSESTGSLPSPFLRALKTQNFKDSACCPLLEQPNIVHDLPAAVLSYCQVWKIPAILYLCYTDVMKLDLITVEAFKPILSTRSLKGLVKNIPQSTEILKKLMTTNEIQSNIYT
UniProt Q9P2B2: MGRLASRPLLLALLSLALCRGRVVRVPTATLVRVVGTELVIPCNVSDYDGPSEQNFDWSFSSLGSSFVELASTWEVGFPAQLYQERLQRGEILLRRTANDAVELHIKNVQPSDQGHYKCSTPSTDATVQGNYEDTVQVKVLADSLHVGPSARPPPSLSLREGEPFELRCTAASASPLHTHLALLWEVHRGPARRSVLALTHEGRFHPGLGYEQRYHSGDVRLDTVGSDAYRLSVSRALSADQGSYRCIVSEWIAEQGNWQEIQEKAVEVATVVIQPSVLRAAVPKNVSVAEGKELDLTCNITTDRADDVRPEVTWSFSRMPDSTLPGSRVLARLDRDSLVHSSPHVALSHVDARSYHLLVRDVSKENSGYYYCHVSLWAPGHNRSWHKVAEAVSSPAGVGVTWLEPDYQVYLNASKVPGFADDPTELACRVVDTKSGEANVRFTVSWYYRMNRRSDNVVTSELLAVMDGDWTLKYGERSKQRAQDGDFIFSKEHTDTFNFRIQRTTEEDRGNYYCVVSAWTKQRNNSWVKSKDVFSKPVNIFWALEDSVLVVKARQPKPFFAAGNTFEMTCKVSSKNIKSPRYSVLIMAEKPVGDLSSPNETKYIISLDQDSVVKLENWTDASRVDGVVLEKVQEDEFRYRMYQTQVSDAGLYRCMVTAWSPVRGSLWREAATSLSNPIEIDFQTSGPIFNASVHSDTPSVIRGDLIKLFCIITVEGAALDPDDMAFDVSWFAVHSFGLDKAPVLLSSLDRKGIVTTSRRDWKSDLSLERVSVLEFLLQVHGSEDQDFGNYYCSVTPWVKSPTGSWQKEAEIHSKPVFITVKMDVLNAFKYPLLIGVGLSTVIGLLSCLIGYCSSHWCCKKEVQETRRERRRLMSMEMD
UniProt O00231, whole entry, looked up: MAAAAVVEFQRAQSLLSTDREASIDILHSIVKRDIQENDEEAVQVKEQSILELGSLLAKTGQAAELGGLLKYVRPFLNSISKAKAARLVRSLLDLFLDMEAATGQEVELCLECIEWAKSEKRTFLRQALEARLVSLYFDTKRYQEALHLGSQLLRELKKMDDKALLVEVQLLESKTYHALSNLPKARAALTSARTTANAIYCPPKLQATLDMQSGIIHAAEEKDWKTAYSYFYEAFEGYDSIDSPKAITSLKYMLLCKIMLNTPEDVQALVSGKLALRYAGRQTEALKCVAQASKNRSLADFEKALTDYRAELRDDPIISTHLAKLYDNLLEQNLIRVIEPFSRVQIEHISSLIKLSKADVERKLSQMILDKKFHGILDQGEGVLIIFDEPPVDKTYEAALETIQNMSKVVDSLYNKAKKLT
UniProt P28066: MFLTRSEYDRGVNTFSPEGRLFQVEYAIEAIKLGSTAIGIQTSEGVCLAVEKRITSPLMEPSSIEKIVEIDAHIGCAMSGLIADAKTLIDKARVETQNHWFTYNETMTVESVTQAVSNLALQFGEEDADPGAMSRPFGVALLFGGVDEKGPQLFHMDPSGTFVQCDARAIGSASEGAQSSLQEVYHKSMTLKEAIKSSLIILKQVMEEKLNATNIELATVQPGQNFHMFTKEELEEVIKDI
UniProt Q3MIT2: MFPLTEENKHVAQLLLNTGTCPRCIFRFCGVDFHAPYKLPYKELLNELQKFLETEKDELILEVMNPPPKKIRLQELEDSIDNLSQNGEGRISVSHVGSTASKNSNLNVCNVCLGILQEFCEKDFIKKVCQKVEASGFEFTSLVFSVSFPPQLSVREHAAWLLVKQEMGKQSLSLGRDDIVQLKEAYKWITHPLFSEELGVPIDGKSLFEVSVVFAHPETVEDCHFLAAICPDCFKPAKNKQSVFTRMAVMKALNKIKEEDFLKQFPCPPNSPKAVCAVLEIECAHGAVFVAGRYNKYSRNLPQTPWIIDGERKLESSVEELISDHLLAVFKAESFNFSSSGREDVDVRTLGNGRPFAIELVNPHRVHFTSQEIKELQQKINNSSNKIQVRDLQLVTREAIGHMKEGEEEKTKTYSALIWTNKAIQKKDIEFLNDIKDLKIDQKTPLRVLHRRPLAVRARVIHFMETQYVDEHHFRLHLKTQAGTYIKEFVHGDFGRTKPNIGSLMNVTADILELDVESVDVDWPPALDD
UniProt P62333, whole entry, looked up: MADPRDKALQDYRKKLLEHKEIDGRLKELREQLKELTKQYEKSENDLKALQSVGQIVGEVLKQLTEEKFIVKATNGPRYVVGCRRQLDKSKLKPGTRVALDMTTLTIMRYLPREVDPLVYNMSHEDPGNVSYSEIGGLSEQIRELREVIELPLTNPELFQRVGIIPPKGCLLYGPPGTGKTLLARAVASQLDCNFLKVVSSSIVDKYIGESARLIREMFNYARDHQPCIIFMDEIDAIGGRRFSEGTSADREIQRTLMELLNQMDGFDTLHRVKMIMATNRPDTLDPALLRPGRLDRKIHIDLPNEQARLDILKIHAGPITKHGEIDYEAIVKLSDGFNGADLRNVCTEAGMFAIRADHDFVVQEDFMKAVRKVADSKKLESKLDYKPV
UniProt Q96C36: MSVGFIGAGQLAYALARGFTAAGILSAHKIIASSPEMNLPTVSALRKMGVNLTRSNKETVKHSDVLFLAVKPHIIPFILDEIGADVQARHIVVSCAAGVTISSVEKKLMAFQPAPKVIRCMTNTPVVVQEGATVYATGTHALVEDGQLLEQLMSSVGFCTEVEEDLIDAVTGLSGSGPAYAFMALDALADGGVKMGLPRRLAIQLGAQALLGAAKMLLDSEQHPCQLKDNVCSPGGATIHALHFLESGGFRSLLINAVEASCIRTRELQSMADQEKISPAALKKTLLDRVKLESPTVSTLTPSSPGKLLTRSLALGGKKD
UniProt Q8TB72: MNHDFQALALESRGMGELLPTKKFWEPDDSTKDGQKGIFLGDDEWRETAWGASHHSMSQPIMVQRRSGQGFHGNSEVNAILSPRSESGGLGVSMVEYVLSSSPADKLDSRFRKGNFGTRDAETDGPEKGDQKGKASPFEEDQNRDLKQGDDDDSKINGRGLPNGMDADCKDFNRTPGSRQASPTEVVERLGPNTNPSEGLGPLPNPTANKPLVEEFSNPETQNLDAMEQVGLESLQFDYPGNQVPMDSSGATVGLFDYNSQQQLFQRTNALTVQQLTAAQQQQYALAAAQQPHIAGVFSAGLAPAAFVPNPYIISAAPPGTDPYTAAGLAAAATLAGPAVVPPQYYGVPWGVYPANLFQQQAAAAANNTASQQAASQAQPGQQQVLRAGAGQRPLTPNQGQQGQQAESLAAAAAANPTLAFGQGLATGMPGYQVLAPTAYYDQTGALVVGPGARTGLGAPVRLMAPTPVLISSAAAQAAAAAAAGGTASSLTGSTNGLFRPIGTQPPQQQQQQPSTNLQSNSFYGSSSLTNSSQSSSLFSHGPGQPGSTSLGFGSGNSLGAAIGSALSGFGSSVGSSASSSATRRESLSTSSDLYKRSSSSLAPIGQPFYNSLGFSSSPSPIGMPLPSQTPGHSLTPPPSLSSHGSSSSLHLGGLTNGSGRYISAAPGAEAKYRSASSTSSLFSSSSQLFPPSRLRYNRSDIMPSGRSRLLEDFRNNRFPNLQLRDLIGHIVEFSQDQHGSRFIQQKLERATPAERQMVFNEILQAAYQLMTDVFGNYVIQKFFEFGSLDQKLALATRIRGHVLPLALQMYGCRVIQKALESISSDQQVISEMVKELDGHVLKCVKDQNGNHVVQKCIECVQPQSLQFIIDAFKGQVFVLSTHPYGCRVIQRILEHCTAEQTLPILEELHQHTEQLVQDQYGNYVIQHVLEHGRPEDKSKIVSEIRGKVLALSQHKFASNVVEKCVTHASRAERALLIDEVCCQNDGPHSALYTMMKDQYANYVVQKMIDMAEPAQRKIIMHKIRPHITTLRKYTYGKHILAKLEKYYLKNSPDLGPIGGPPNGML
UniProt P35998: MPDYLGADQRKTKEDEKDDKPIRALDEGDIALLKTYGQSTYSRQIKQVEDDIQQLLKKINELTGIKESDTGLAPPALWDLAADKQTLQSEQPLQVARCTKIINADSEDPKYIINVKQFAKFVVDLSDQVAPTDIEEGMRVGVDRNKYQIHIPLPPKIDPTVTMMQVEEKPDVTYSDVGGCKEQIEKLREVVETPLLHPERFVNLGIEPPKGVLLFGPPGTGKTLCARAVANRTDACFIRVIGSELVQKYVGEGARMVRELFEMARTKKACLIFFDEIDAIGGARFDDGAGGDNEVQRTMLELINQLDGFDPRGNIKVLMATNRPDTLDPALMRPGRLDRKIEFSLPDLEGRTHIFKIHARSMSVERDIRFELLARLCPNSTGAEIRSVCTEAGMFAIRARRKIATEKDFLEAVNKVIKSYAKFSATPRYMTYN
UniProt P20742, whole entry, looked up: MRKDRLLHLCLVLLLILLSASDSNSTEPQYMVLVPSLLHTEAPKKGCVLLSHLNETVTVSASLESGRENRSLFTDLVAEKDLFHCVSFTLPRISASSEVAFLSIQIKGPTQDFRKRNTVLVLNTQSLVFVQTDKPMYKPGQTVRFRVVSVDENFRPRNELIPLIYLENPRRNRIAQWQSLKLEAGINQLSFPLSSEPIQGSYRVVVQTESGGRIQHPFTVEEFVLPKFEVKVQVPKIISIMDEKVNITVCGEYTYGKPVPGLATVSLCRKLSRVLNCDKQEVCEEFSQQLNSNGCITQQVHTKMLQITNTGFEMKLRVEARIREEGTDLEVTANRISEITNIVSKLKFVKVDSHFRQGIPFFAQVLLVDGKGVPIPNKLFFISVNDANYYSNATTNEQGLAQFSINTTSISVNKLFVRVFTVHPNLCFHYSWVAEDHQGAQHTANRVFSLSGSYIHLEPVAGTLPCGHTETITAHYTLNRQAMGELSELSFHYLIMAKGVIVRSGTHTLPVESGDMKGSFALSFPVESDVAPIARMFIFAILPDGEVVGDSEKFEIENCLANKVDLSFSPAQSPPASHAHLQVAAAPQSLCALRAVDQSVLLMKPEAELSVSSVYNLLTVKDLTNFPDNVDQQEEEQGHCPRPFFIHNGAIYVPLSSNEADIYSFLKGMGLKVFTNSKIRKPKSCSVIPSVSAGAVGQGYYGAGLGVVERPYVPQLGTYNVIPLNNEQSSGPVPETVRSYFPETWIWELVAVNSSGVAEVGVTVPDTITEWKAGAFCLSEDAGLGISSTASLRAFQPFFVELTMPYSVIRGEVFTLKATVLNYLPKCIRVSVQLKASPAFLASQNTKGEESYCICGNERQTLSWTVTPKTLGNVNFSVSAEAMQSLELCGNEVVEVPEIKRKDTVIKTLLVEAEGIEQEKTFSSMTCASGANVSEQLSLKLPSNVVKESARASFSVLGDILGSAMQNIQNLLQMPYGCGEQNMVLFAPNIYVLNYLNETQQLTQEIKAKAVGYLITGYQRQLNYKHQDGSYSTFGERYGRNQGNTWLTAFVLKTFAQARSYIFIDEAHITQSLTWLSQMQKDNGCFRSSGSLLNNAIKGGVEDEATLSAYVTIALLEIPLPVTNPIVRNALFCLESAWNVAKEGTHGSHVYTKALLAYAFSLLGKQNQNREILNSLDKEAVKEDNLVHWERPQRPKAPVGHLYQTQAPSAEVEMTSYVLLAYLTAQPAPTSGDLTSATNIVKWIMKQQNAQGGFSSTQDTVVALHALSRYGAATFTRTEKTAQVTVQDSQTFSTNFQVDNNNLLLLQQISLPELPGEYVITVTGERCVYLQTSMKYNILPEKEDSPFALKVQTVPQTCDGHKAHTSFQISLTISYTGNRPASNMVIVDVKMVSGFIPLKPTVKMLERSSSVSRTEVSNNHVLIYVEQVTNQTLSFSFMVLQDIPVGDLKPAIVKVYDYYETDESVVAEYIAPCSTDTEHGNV

Assays:
Assay in all cases: log2 fold change, soluble protein after heating vs DMSO (PISA); higher = thermal stabilisation; K562 cells, 10 uM, 30 min; active = over 0.2 and 3.5 SD of the protein, either way, in both replicates (recomputed)
[1] = compound: NC(=O)Nc1cc(-c2cccc(F)c2)sc1C(=O)N[C@H]1CCCNC1
Summary of the method: (§1)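 Soluble protein was quantified by TMTpro 16plex LC-MS/MS after channel sums were equalised. It was obtained as the supernatant after 21,000xg for 90 min from pooled aliquots of K562 cells (2×10^6 cells/mL, 10 μM compound, 30 min) heated for 3 min across 48°C-58°C and extracted in PBS with 0.5% NP-40 at 4°C. Thermal stability values are relative to control samples and come from duplicates. They are given as log2 fold changes.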

[2] = compound: NC(=O)c1cnc(N[C@@H]2CCCC[C@@H]2N)nc1Nc1cccc(-n2nccn2)c1
Summary of the method: as §1

[3] = compound: NC1(c2ccc(-c3nc4ccn5c(=O)[nH]nc5c4cc3-c3ccccc3)cc2)CCC1
Summary of the method: as §1

[4] = compound: NCC(=O)Nc1ccc(-n2nc(C(F)(F)F)cc2-c2ccc3c(ccc4ccccc43)c2)cc1
Summary of the method: as §1

[5] = compound: Nc1ccccc1NC(=O)c1ccc(CNC(=O)OCc2cccnc2)cc1 [entinostat]
Summary of the method: as §1

[6] = compound: O=C(CCCCCCC(=O)Nc1ccccc1)NO [vorinostat]
Summary of the method: as §1

[7] = compound: O=C(CCCCCCNC(=O)c1cnc(N(c2ccccc2)c2ccccc2Cl)nc1)NO [citarinostat]
Summary of the method: as §1

[8] = compound: O=C(O)c1ccc2c(c1)nc(Nc1cccc(Cl)c1)c1ccncc12 [silmitasertib]
Summary of the method: as §1

[9] = compound: O=C1NC(=O)C(c2cnc3ccccn23)=C1c1cn2c3c(cc(F)cc13)CN(C(=O)N1CCCCC1)CC2
Summary of the method: as §1

[10] = compound: c1cc(OCCN2CCCCC2)cc(-c2n[nH]c3ccc(-c4nnc[nH]4)cc23)c1
Summary of the method: as §1

Measured: log2 fold change

PRTFDC1 (UniProt Q9NRG1)
inactive: [1] -0.043 | [2] 0.02 | [3] 0.04 | [4] 0.052 | [5] -0.022 | [6] -0.008 | [7] 0.046 | [8] -0.084 | [9] -0.027 | [10] 0.014

PSMA7 (UniProt O14818)
inactive: [1] 0.002 | [2] 0.065 | [3] 0.009 | [4] 0.052 | [5] -0.058 | [6] -0.013 | [7] -0.009 | [8] -0.001 | [9] 0.068 | [10] -0.026

PSMG1 (UniProt O95456)
inactive: [1] 0.014 | [2] 0.013 | [3] 0 | [4] 0.021 | [5] 0.013 | [6] 0.002 | [7] 0.017 | [8] -0.024 | [9] -0.007 | [10] 0

PTGFRN (UniProt Q9P2B2)
inactive: [1] -0.115 | [2] 0.083 | [3] 0.013 | [4] 0.014 | [5] -0.071 | [6] -0.055 | [7] 0.021 | [8] -0.006 | [9] -0.007 | [10] -0.104

PSMD11 (UniProt O00231)
inactive: [1] 0.048 | [2] 0.04 | [3] -0.016 | [4] 0.061 | [5] -0.012 | [6] 0.027 | [7] -0.001 | [8] -0.028 | [9] 0.071 | [10] -0.092

PSMA5 (UniProt P28066)
inactive: [1] 0.065 | [2] 0.052 | [3] 0.038 | [4] 0.065 | [5] -0.001 | [6] -0.02 | [7] 0.021 | [8] -0.006 | [9] 0.048 | [10] -0.055

PUS10 (UniProt Q3MIT2)
inactive: [1] 0.004 | [2] -0.089 | [3] 0.123 | [4] 0.016 | [5] 0 | [6] 0.034 | [7] 0.006 | [8] 0.12 | [9] -0.045 | [10] -0.01

PSMC6 (UniProt P62333)
inactive: [1] 0.007 | [2] 0.015 | [3] 0.069 | [4] 0.075 | [5] -0.015 | [6] -0.005 | [7] -0.048 | [8] -0.035 | [9] 0.072 | [10] -0.075

PYCR2 (UniProt Q96C36)
inactive: [1] 0.006 | [2] -0.007 | [3] -0.011 | [4] 0.028 | [5] -0.02 | [6] -0.016 | [7] -0.005 | [8] -0.02 | [9] 0.001 | [10] -0.02

PUM2 (UniProt Q8TB72)
inactive: [1] -0.088 | [2] -0.014 | [3] -0.101 | [4] -0.057 | [5] -0.039 | [6] 0.03 | [7] -0.003 | [8] 0.034 | [9] 0.102 | [10] -0.101

PTDSS1 (UniProt P48651)
inactive: [1] 0.043 | [2] -0.045 | [3] 0.022 | [4] -0.007 | [5] -0.058 | [6] 0.199 | [7] -0.051 | [8] 0.091 | [9] 0.184 | [10] -0.06

Two consecutive records out of the list so far:
PTGFRN (UniProt Q9P2B2)
inactive: [1] -0.115 | [2] 0.083 | [3] 0.013 | [4] 0.014 | [5] -0.071 | [6] -0.055 | [7] 0.021 | [8] -0.006 | [9] -0.007 | [10] -0.104

PSMD11 (UniProt O00231)
inactive: [1] 0.048 | [2] 0.04 | [3] -0.016 | [4] 0.061 | [5] -0.012 | [6] 0.027 | [7] -0.001 | [8] -0.028 | [9] 0.071 | [10] -0.092

More records

PSMC2 (UniProt P35998)
inactive: [1] 0.014 | [2] -0.013 | [3] 0.026 | [4] 0.091 | [5] -0.025 | [6] -0.018 | [7] -0.04 | [8] -0.015 | [9] 0.087 | [10] -0.086

PUM1 isoform 3 (UniProt Q14671)
inactive: [1] 0 | [2] -0.032 | [3] -0.082 | [4] -0.015 | [5] 0.034 | [6] 0.108 | [7] -0.008 | [8] 0.01 | [9] -0.028 | [10] -0.007

PZP (UniProt P20742)
inactive: [1] -0.107 | [2] 0.087 | [3] 0.028 | [4] 0.039 | [5] -0.032 | [6] -0.061 | [7] -0.038 | [8] 0.066 | [9] 0.025 | [10] 0.399
